Measured values taken from patent publication US10464977B2 (University of Maryland, Baltimore, priority 2016, dated 2019).
Not every detail of the peptide structures is certain; ends, links or a residue may be inferred. Residues, ends and D or L forms follow the SMILES beside them.

System: C. albicans
Format: cell-based
Conditions: 2.5×10^7 cells mL^−1 (FIG. 5B)

Structure (SMILES): CC(C)C[C@H](NC(=O)[C@H](CCC(=O)O)NC(=O)[C@H](Cc1c[nH]cn1)NC(=O)[C@H](Cc1ccccc1)NC(=O)[C@H](CCCCN)NC(=O)[C@H](CCCNC(=N)N)NC(=O)[C@H](CCCCN)NC(=O)[C@H](Cc1ccc(O)cc1)NC(=O)CNC(=O)[C@H](Cc1c[nH]cn1)NC(=O)[C@H](Cc1c[nH]cn1)NC(=O)[C@H](CCCNC(=N)N)NC(=O)[C@H](CCCCN)NC(=O)[C@H](C)NC(=O)[C@H](Cc1c[nH]cn1)NC(=O)[C@H](CO)NC(=O)[C@@H](N)CC(=O)O)C(=O)N[C@@H](Cc1c[nH]cn1)C(=O)N[C@@H](Cc1c[nH]cn1)C(=O)N[C@@H](CO)C(=O)N[C@@H](Cc1c[nH]cn1)C(=O)N[C@@H](CCCNC(=N)N)C(=O)NCC(=O)N[C@@H](Cc1ccc(O)cc1)C(=O)O [Peptide K17L] (H-DSHAKRHHGYKRKFHELHHSHRGY-OH; N-terminus and C-terminus assumed)
- antifungal activity compared to Hst-5 (in words): neither K17R nor K17L showed improvement in antifungal activity

Structure (SMILES): C[C@H](NC(=O)[C@H](Cc1c[nH]cn1)NC(=O)[C@H](CO)NC(=O)[C@@H](N)CC(=O)O)C(=O)N[C@@H](CCCCN)C(=O)N[C@@H](CCCNC(=N)N)C(=O)N[C@@H](Cc1c[nH]cn1)C(=O)N[C@@H](Cc1c[nH]cn1)C(=O)NCC(=O)N[C@@H](Cc1ccc(O)cc1)C(=O)N[C@@H](CCCCN)C(=O)N[C@@H](CCCNC(=N)N)C(=O)N[C@@H](CCCCN)C(=O)N[C@@H](Cc1ccccc1)C(=O)N[C@@H](Cc1c[nH]cn1)C(=O)N[C@@H](CCC(=O)O)C(=O)N[C@@H](CCCNC(=N)N)C(=O)N[C@@H](Cc1c[nH]cn1)C(=O)N[C@@H](Cc1c[nH]cn1)C(=O)N[C@@H](CO)C(=O)N[C@@H](Cc1c[nH]cn1)C(=O)N[C@@H](CCCNC(=N)N)C(=O)NCC(=O)N[C@@H](Cc1ccc(O)cc1)C(=O)O [Peptide K17R] (H-DSHAKRHHGYKRKFHERHHSHRGY-OH; N-terminus and C-terminus assumed)
- antifungal activity compared to Hst-5 (in words): neither K17R nor K17L showed improvement in antifungal activity
